Experimental data reported in PubChem BioAssay AID624297 (National Center for Advancing Translational Sciences (NCATS), 2012).
Hit rate of the full screen: of about 340,000 compounds, about 6,200 (1.8%) were called active. The shares of active, inactive and inconclusive entries below differ from those in the screen. Calls follow the shape of the dose curve; as a rule, active = well fitted activation curve with a large enough effect; inconclusive = small, poorly fitted or top-dose-only effect; inactive = no such curve, though single readings can be large or run the other way. Potencies of inconclusive entries are doubtful fits and often do not repeat.

assay: A quantitative high throughput screen for small molecules that induce DNA re-replication in SW480 colon adenocarcinoma cells.; also: nearly all actives have a fitted effect of over 55% in size; as to re-replication activation: % of control where 0% means no effect; settings: Hoechst DNA content imaging, 48 h; re-replication activation: at 46.1 µM (top of the series) unless noted
Method in brief: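 Cells (250 per well) received 23 nL compound or DMSO by pin tool and were kept 48 hr at 37 C, 5% CO2. Nuclei were then stained with Hoechst for 40 min and scanned for DNA content.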
Potency is read from the fitted curve at half-maximal effect.

Row | Structure (SMILES) | Potency | re-replication activation
1 | CN(C)CCC(Oc1ccccc1OCc1ccccc1)c1ccccc1 (configuration not stated) | inconclusive: 16.4 µM [activator, partial curve, poor fit] | –
2 | COc1cccc2sc(Nc3nnc(-c4ccccc4Cl)o3)nc12 | active: 2.59 µM | –
3 | O=C(CNC(=O)c1ccccc1F)N/N=C/c1cc(Br)ccc1OCc1ccccc1 | inconclusive: 14.6 µM [activator, partial curve] | –
4 | CC(C)[C@H](NC(=O)[C@@H]1Cc2c([nH]c3ccccc23)C2c3ccccc3C(=O)N21)C(=O)N1CCC[C@@H]1C(=O)O (some centres not stated) | inconclusive: 6.51 µM [activator, single point] | –
5 | Nc1c(Cl)cc2c(c1Oc1ccccc1)C(=O)c1ccccc1C2=O | inconclusive: 23.1 µM [activator, single point] | –
6 | COc1ccc(NC(=O)C2CCN(c3ncnc4c3nc3n4CCCCC3)CC2)cc1Cl | inconclusive: 2.59 µM [activator, full curve, poor fit] | –
7 | CCN1CCN(S(=O)(=O)c2ccc(Cl)c(C(=O)NCCOc3ccc(C)cc3)c2)CC1 | inactive | –
8 | CC(=O)c1c(C)[nH]c(C(=O)N2CCN(c3ccc(F)cc3)CC2)c1C | inactive | –
9 | NNC(=O)c1cc2ccccc2cc1O | inconclusive: 25.9 µM [activator, single point] | –
10 | Cc1ccc(C)c(Nc2cc(C)nc(-c3ccccc3O)n2)c1 | inconclusive: 29.1 µM [activator, single point] | –
11 | CCCCNC(=S)NNC(=O)CCn1nc(C)c(Br)c1C | active: 8.2 µM | –
12 | NS(=O)(=O)c1ccc(N2N=C(c3ccccc3)CC2c2ccc(F)cc2)cc1 (configuration not stated) | active: 20.6 µM | –
13 | CCc1nnc(NS(=O)(=O)c2ccc(N/C=C/C(=O)c3ccc(OC)cc3)cc2)s1 | inconclusive: 0.103 µM [activator, full curve, poor fit] | –
14 | CC(=O)c1ccc(NS(=O)(=O)Cc2ccccc2)cc1 | inconclusive: 6.51 µM [activator, single point] | –
15 | Cc1cc(C=O)c(C)n1-c1ccc(Oc2ccc([N+](=O)[O-])cn2)cc1 | inactive | –
16 | Cc1nc(NC(=O)CSc2nc3cccnc3n2C2CCCCC2)sc1C | inactive | –
17 | CCn1cc(C(=O)NCc2ccc(Cl)cc2)c(=O)c2cc(S(=O)(=O)N(C)C)ccc21 | inconclusive: 18.4 µM [activator, single point] | –
18 | CSc1ccccc1-c1nnc(-c2ccc(C)cc2)o1 | inconclusive: 32.6 µM [activator, partial curve, poor fit] | –
19 | CC1=C(C(=O)O)N2C(=O)C(NC(=O)c3nn(C)c(C)c3Cl)C2SC1 (configuration not stated) | inconclusive: 0.116 µM [activator, full curve, poor fit] | –
20 | Cc1ccc(NC(=O)c2ccc([N+](=O)[O-])o2)c(C)c1 | inconclusive: 0.58 µM [activator, partial curve, poor fit] | –
21 | COc1ccccc1N1CCN(C(=O)c2cccc(S(=O)(=O)N3c4ccccc4CC3C)c2)CC1 (configuration not stated) | inactive | –
22 | Cc1ccccc1N=C1NC(=O)/C(=C/c2cccn2C)S1 | inconclusive: 0.82 µM [activator, full curve, poor fit] | –
23 | COc1ccc(/C=C/c2nc3ccccc3n2Cc2ccc(OC)c(OC)c2)cc1 | inconclusive: 0.366 µM [activator, full curve, poor fit] | –

Fetched by compound from the entries so far, 2 records:
Row | Structure (SMILES) | Potency | re-replication activation
3 | O=C(CNC(=O)c1ccccc1F)N/N=C/c1cc(Br)ccc1OCc1ccccc1 | inconclusive: 14.6 µM [activator, partial curve] | –
15 | Cc1cc(C=O)c(C)n1-c1ccc(Oc2ccc([N+](=O)[O-])cn2)cc1 | inactive | –

Next part

Row | Structure (SMILES) | Potency | re-replication activation
24 | Cc1ccccc1-n1c(Cc2cccs2)n[nH]c1=S | inactive | –
25 | CC(NC(=O)Nc1ccc(Cl)cc1)C1CCCO1 (configuration not stated) | inconclusive: 0.731 µM [activator, full curve, poor fit] | –
26 | NC1=NC(=O)/C(=C/c2cc(Br)c(O)c(Br)c2)S1 | inactive | –
27 | Cc1ccc(-c2ccc(C#N)c(=O)n2CC(=O)N(C)C)cc1 | inconclusive: 6.51 µM [activator, single point] | –
28 | Cc1cc(C)cc(N(C(=O)c2snc(C(N)=O)c2N)C(C(=O)NCC2CCCO2)c2cccs2)c1 (configuration not stated) | inconclusive: 23.1 µM [activator, partial curve, poor fit] | –
29 | COc1cccc(NC(=O)CN(C)C(=O)c2cccc(NS(=O)(=O)c3ccccc3)c2)c1 | inconclusive: 29.1 µM [activator, single point] | –
30 | CCC(C)c1ccc(NC(=S)N2CCN(S(C)(=O)=O)CC2)cc1 (configuration not stated) | inconclusive: 20.6 µM [activator, single point] | –
31 | O=C(/C=C/c1ccccc1[N+](=O)[O-])OCC(=O)c1ccccc1 | inactive | –
32 | CCOc1ccc2oc(C(=O)Nc3ccc4c(c3)OCO4)c(C)c2c1 | inconclusive: 18.4 µM [activator, single point] | –
33 | Cc1ccnc(NC(=O)c2ccc3[nH]c(=O)c(=O)[nH]c3c2)c1 | – | inconclusive: 36.5% [activator]
34 | CC(C)OC(=O)c1c(N)n(CCCN2CCOCC2)c2nc3ccccc3nc12 | inconclusive: 29.1 µM [activator, single point] | –
35 | C[C@@H](OC(=O)c1[nH]cnc1C(=O)NCc1ccc(CNC(=O)OC(C)(C)C)cc1)c1ccccc1 | inconclusive: 20.6 µM [activator, single point] | –
36 | O=C(c1ccco1)[C@@H]1[C@@H]2C(=O)N(c3ccccc3)C(=O)[C@@H]2C2c3ccccc3C=CN21 (some centres not stated) | inactive | –
37 | C=CCN(CC(O)c1cccc([N+](=O)[O-])c1)C(C)CCc1ccccc1 (configuration not stated) | inactive | –
38 | NC(=O)N/N=C/c1ccccc1OCc1cccc2ccccc12 | inactive | –
39 | COc1ccc(C2C(C#N)=C3NC(=O)c4c(sc5c4CCCCC5)N3C3=C2C(=O)CC(C)(C)C3)cc1 (configuration not stated) | inconclusive: 20.6 µM [activator, single point] | –
40 | COCCn1c(=NC(=O)c2cc3ccccc3oc2=O)sc2cc(S(N)(=O)=O)ccc21 | inconclusive: 3.66 µM [activator, full curve] | –
41 | Cc1cc(=O)[nH]c(=S)n1-c1ccccc1 | inconclusive: 29.1 µM [activator, single point] | –
42 | O=C(O)CCC(=O)Nc1ccc(C(=O)OCC(=O)c2ccc(Cl)cc2Cl)cc1 | inactive | –
43 | Cc1ccccc1C1CC(=O)c2ccccc2C1C (configuration not stated) | inconclusive: 29.1 µM [activator, single point] | –
44 | Cc1ccc2oc(/N=C(\N)NC(=O)C(C)(C)C)nc2c1 | inconclusive: 29.1 µM [activator, partial curve, poor fit] | –
45 | Cc1ccc(-n2c(C)cc(C(=O)COc3cccnc3[N+](=O)[O-])c2C)cc1 | inconclusive: 29.1 µM [activator, partial curve, poor fit] | –
46 | Cc1cc(C)c2c(=O)n(CC(=O)Nc3ccc(Br)c(C)c3)sc2n1 | inconclusive: 20.6 µM [activator, single point] | –

Row | Structure (SMILES) | Potency | re-replication activation
47 | CC(C[N+](C)(C)C)OC(N)=O (configuration not stated) | inconclusive: 16.4 µM [activator, partial curve, poor fit] | –
48 | Cc1ccc(NC(=O)CCNC(=O)c2ccc(Br)cc2)cc1S(=O)(=O)N1CCCCCC1 | inactive | –
49 | CS(=O)(=O)c1ccc(Cl)c(NC(=O)COC(=O)CNC(=O)c2sc3ccccc3c2Cl)c1 | inconclusive: 14.6 µM [activator, single point] | –
50 | Cc1cc(SCC(=O)c2cccs2)n2nc(C)c(-c3ccccc3)c2n1 | inconclusive: 6.51 µM [activator, single point] | –
51 | Cc1cccc(C)c1OCC(=O)N/N=C/C=C/c1ccco1 | inconclusive: 18.4 µM [activator, single point] | –
52 | O=C(CC1S/C(=N/N=C/C=C/c2ccccc2)NC1=O)Nc1ccc(C(=O)O)cc1 (configuration not stated) | inconclusive: 18.4 µM [activator, single point] | –
53 | COc1ccc(CCNC(=O)CCCN2C(=O)C(c3ccccc3)Oc3cccnc32)cc1OC (configuration not stated) | inactive | –
54 | COc1ccc2[nH]c3c(=S)nc[nH]c3c2c1 | inconclusive: 6.51 µM [activator, single point] | –
55 | O=C(c1ccc2c(Cl)c3c(nc2c1)CCCC3)N1CCC(N2CCCCC2)CC1 | inconclusive: 29.1 µM [activator, single point] | –
56 | Cc1c2cnccc2c(C)c2c1oc1ccccc12 | inconclusive: 23.1 µM [activator, single point] | –
57 | S=c1[nH]nc(COc2cccc3ccccc23)n1Cc1ccccc1 | inactive | –
58 | COc1ccc(/C=C/c2onc(C)c2S(=O)(=O)N2CCC(C(=O)N3CCC(C)CC3)CC2)cc1 | inactive | –
59 | CN(Cc1ccccc1)C(=O)c1ccc(NC(=O)Cc2ccc(NC(=O)C3CCN(C(=O)C4CCC4)CC3)cc2)cc1 | inactive | –
60 | C/C(=N\NC(=O)c1c(Cl)cnn1C)c1ccc(NC(=O)c2ccc(Br)o2)cc1 | inconclusive: 29.1 µM [activator, partial curve, poor fit] | –
61 | NC(=O)c1ccsc1NC(=O)COC(=O)/C=C/c1ccccc1 | inactive | –
62 | O=C(CCNS(=O)(=O)c1ccc(Br)cc1)N1CCCCCCC1 | inactive | –
63 | CCn1cc(C(=O)N(C)c2cc(C)ccc2OC)c2cc(OC)c(OC)cc2c1=O | inactive | –
64 | CN1CCN(S(=O)(=O)c2cccc(C(=O)N(C)Cc3c(F)cccc3Cl)c2)CC1 | inconclusive: 29.1 µM [activator, single point] | –
65 | Cc1cc(-c2cc(C(=O)NCc3ccccc3)on2)nc(S(C)(=O)=O)n1 | inconclusive: 6.51 µM [activator, single point] | –
66 | COc1ccc2nc(-c3ccc(F)cc3)sc2c1 | inconclusive: 29.1 µM [activator, single point] | –
67 | COc1ccc(C2c3ccc4ccccc4c3Oc3ncn(CCN(C)C)c(=N)c32)cc1 (configuration not stated) | inconclusive: 18.4 µM [activator, single point] | –
